No constants are given. Whether binding was seen depends on the method and setting.
How the values were obtained:
[1] = target: FLAG-tagged Tah1 (yeast) (UniProt P25638); test: co-IP; 70 μM Flag-Tah1p, Hsp90 600-709 and increasing concentrations of Cpr6 in 20 mM HEPES pH 7.5, 150 mM NaCl, 10% glycerol, 0.5% Igepal, 2 mM EDTA; Anti-Flag M2 magnetic beads; SDS-PAGE; both purified
[2] = target: His6-Hsp90β (human) (UniProt P08238); test: pull-down; His6-Hsp90β as bait, Spagh/RPAP3 120-395 tandem TPR segment (wild type and mutants) as prey; both purified

Amino acid sequences for entries named in this document (tags omitted). A change or cut given only in a name is not applied to a line headed by its entry. Chains listed by the source or under a name are the forms on record and can include a tag or linker.
UniProt P25638: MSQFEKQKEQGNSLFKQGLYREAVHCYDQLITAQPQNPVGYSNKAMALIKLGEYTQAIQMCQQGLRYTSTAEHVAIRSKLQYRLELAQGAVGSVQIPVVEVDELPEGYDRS
UniProt P08238: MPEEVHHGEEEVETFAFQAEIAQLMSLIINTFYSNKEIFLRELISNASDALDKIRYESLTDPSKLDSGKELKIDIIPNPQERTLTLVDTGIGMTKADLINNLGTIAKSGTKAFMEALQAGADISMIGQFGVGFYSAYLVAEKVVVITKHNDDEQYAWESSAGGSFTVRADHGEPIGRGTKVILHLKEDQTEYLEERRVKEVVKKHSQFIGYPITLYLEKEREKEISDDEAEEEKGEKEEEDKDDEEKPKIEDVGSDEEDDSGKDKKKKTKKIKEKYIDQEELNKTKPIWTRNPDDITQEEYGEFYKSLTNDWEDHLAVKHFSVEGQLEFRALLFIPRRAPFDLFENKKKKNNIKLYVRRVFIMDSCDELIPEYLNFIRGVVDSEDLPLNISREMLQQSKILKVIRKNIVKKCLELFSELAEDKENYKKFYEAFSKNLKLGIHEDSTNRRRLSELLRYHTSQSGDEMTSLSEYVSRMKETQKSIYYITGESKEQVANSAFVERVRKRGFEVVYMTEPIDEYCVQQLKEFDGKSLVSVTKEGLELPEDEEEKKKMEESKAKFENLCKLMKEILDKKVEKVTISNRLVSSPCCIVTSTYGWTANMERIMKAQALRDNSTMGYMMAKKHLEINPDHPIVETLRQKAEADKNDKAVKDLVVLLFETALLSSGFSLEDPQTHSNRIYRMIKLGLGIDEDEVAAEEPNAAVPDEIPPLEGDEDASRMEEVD
UniProt P53691: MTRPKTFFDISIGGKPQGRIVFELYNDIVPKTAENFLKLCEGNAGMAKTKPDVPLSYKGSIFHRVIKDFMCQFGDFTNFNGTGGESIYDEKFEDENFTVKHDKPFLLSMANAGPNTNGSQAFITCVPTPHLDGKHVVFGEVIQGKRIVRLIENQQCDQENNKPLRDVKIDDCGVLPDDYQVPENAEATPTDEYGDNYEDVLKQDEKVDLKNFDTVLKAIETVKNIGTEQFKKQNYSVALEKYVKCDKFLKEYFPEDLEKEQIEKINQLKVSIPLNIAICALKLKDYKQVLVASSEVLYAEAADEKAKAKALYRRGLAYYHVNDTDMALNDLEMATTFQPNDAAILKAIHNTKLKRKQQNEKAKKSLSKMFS
Spagh/RPAP3 120-395 N172E-N321E double mutant (Q9H6T3, form named): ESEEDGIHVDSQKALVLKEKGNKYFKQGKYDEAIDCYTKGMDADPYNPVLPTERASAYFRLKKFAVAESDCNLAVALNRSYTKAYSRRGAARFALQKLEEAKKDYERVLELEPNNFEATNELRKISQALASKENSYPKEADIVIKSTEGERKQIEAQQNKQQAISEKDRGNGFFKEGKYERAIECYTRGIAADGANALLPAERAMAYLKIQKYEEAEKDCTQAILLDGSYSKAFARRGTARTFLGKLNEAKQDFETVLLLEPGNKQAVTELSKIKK

## Cpr6 (monomeric TPR-domain Hsp90 cochaperone) (from UniProt P53691 1-371)
[1]
  binding: no binding

## Spagh/RPAP3 120-395 N172E-N321E double mutant (from UniProt Q9H6T3 120-395) (domain or fragment)
[2]
  binding: no binding

Reference: article PMC4058522, “Structural Basis for Phosphorylation-Dependent Recruitment of Tel2 to Hsp90 by Pih1” (Structure(London, England:1993), 2014)
